Source: PubChem BioAssay AID1259405 (NCATS, 2018)

- Aim: 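Mouse-designed siRNAs used to find CHO productivity engineering targets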 (primary screen)
- Cell system: Chinese hamster CHO-K1 ovary cells with stable secreted eGFP expression
- Reagents: single siRNA against mouse genes, 0.8 pmol siRNA per well (2 µl of 400 nM stock)
- Duration: 3 days
- Read-out: 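Percent of the per-plate non-targeting control median for intracellular GFP per well by laser scanning cytometry and for cell viability by ATP luminescence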
- Direction: GFP, % of control: higher = more GFP per well, higher productivity; viability (ATP), % of control: higher = more viable cells (more ATP)
- Hit rule: 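a knock-down is called active if GFP reaches 120% or more of non-targeting control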
This is one part, drawn at random, of about 50,000 reagents. About 4,000 of them (8%) count as active. 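Mouse siRNA library applied to hamster cells; one well for each siRNA.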 The numbers tell different reagents against one gene apart.

target gene	reagent	GFP, % of control	viability (ATP), % of control	activity call
Crppa (CDP-L-ribitol pyrophosphorylase A)	1	69.8	84.6	inactive
Crppa (CDP-L-ribitol pyrophosphorylase A)	2	79.2	43.7	inactive
Crppa (CDP-L-ribitol pyrophosphorylase A)	3	75.1	89.5	inactive
Or52ad1 (olfactory receptor family 52 subfamily AD member 1)	1	232	114	active
Or52ad1 (olfactory receptor family 52 subfamily AD member 1)	2	103	90.3	inactive
Or52ad1 (olfactory receptor family 52 subfamily AD member 1)	3	59.3	75.5	inactive
S100a14 (S100 calcium binding protein A14)	1	116	117	inactive
S100a14 (S100 calcium binding protein A14)	2	61.8	62.1	inactive
Amer1 (APC membrane recruitment 1)	1	59.1	68.7	inactive
Amer1 (APC membrane recruitment 1)	2	59.9	49.5	inactive
Amer1 (APC membrane recruitment 1)	3	100	84.3	inactive
Cela2a (chymotrypsin-like elastase family, member 2A)	1	162	79.6	active
Cela2a (chymotrypsin-like elastase family, member 2A)	2	103	83.3	inactive
Cela2a (chymotrypsin-like elastase family, member 2A)	3	73.1	62.1	inactive
Cyp2j6 (cytochrome P450, family 2, subfamily j, polypeptide 6)	1	63.4	84.3	inactive
Cyp2j6 (cytochrome P450, family 2, subfamily j, polypeptide 6)	2	83.3	89	inactive
Cyp2j6 (cytochrome P450, family 2, subfamily j, polypeptide 6)	3	73.2	80.9	inactive
Ankrd13a (ankyrin repeat domain 13a)	1	72.4	78.1	inactive
Ankrd13a (ankyrin repeat domain 13a)	2	112	105	inactive
Ankrd13a (ankyrin repeat domain 13a)	3	217	72.1	active
Or5p69 (olfactory receptor family 5 subfamily P member 69)	1	69.3	84.4	inactive
Or5p69 (olfactory receptor family 5 subfamily P member 69)	2	71.2	50.4	inactive
Or5p69 (olfactory receptor family 5 subfamily P member 69)	3	74.5	66.9	inactive
Tyro3 (TYRO3 protein tyrosine kinase 3)	1	83.6	78.4	inactive
Tyro3 (TYRO3 protein tyrosine kinase 3)	2	76.8	77.2	inactive
Tyro3 (TYRO3 protein tyrosine kinase 3)	3	72.6	76.2	inactive
Nipal2 (NIPA-like domain containing 2)	1	72.3	65.5	inactive
Nipal2 (NIPA-like domain containing 2)	2	53.9	71.7	inactive
Nipal2 (NIPA-like domain containing 2)	3	106	88.6	inactive
Trip4 (thyroid hormone receptor interactor 4)	1	84.5	85	inactive
Trip4 (thyroid hormone receptor interactor 4)	2	73.1	81.5	inactive
Trip4 (thyroid hormone receptor interactor 4)	3	82.3	87.2	inactive
Grhl2 (grainyhead like transcription factor 2)	1	81.2	65.6	inactive
Grhl2 (grainyhead like transcription factor 2)	2	67.2	72.6	inactive
Grhl2 (grainyhead like transcription factor 2)	3	71.2	79.7	inactive

Reagents listed above marked active:
target gene	reagent	GFP, % of control	viability (ATP), % of control	activity call
Or52ad1 (olfactory receptor family 52 subfamily AD member 1)	1	232	114	active
Cela2a (chymotrypsin-like elastase family, member 2A)	1	162	79.6	active
Ankrd13a (ankyrin repeat domain 13a)	3	217	72.1	active
